Some results were stated once for a whole list of compounds, not compound by compound.
System: amber codon at position 33 of human superoxide dismutase (hSOD (Trp 33 TAG) HIS)
Test: hSOD (33TAG)HIS protein expression in S. cerevisiae genetically encoding unnatural amino acids (SDS-PAGE, western blot, densitometry, Ni-NTA purification)
Format: cell-based, Saccharomyces cerevisiae
Conditions: SOD(Trp33 TAG)HIS, pPR-EcRS-2; densitometry comparison to expression in absence of the amino acid

| SMILES | fidelity of unnatural amino acid dependent protein expression [%] |
| --- | --- |
| C#CCOc1ccc(C[C@H](N)C(=O)O)cc1 [1 of FIG. 11, p-propargyloxyphenylalanine] | > 99 |
| [N-]=[N+]=Nc1ccc(C[C@H](N)C(=O)O)cc1 [p-azido-L-phenylalanine] | > 99 |

Reference: patent publication US7888063B2, “Unnatural reactive amino acid genetic code additions” (The Scripps Research Institute, priority 2003, dated 2011)
